In all, about 120,000 compounds went through this assay and about 270 (0.23%) were called active. Only results without a clear call are listed here; the source files them as inconclusive. Calls come from the whole dose curve. Some results for these compounds are left out of this collection, so the calls shown say nothing about other tests.
Test: Primary qHTS Assay for Foot and Mouth Disease Virus Antivirals against NCGC Sytravon and CBC Compound Libraries: Firefly Luciferase Signal; note: nearly all actives have a fitted effect of over 60% in size
Details: FMDV antiviral cell assay
Potency is the fitted concentration of half-maximal effect.

**Q.** Which Potency does the source give for `O=C(CCC1CCCCC1)N1CCN(C/C=C/c2ccccc2)CC1` here?
**A.** inconclusive: 39.8 µM

**Q.** With `CN(C)CCOC(=O)C(O)(c1ccccc1)C1CCCCC1` (configuration not stated) as the molecule, how does the Potency read?
**A.** inconclusive: 7.08 µM

Reference: PubChem BioAssay AID1745856 (National Center for Advancing Translational Sciences (NCATS), 2022)
